Measured values: PubChem BioAssay AID256 (DTP/NCI, 2004)
The list is a part of this screen's results and no random one: it gathers tests that were run many times, whatever their T/C, doses with no T/C, and many T/C values between a quarter and a half above the control. Other doses and runs of a compound stand elsewhere. T/C gives the treated animals as a percentage of the vehicle group. Some entries give survivors of the animals treated and no T/C: the source files T/C as zero there, which appears to mark a toxic dose or a test without result, not a measured value. Some survivor counts are full or nearly so, which does not show that the dose was tolerated: the source hardly ever lists a survival T/C far under the control, and the zero likely stands for such cases as well. Survivors were counted at the toxicity check, usually on the fifth day, unless a day is given; later deaths do not show. Schedule codes are those of the source, read here as Q, the interval in days (D) or hours (H), X, the number of doses. Some entries were tested several times; the values are given in rising order. Where survival is the endpoint, this PubChem deposit counts one and a half times the control or more as active, and values a quarter to a half above the control carry no call in these data; other NCI protocols may use other cut-offs.

System: CD2F1 mice, L1210 leukemia ip, survival T/C
Test: NCI In Vivo Anticancer Drug Screen. Data for tumor model L1210 Leukemia (intraperitoneal) in CD2F1 (CDF1) mice
Conditions: higher T/C = longer survival
Outline: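 Ratio T/C, where T is the treated-group value and C the vehicle-dosed control value, from mice implanted with a transplantable tumor.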

[1] = T/C endpoint: mean survival time, dose: 200.0 mg/kg/injection, schedule: Q01DX009 (ip), vehicle: saline with Tween-80
[2] = T/C endpoint: mean survival time, dose: 400.0 mg/kg/injection, schedule: Q01DX009 (ip), vehicle: saline with Tween-80
[3] = T/C endpoint: mean survival time, dose: 200.0 mg/kg/injection, schedule: Q04DX003 (ip), vehicle: saline with Tween-80
[4] = T/C endpoint: mean survival time, dose: 400.0 mg/kg/injection, schedule: Q04DX003 (ip), vehicle: saline with Tween-80
[5] = T/C endpoint: median survival time, dose: 400.0 mg/kg/injection, schedule: Q01DX005 (ip), vehicle: Klucel (hydroxypropylcellulose) (HPC)
[6] = T/C endpoint: mean survival time, dose: 100.0 mg/kg/injection, schedule: Q04DX003 (ip), vehicle: saline with Tween-80

SMILES: C1OC1CN1CCN(CC2CO2)CC1 (configuration not stated)
- T/C (T/C endpoint: mean survival time, dose: 8.0 mg/kg/injection, schedule: Q03HX008 (ip), vehicle: saline): 126 % of control
- T/C (T/C endpoint: mean survival time, dose: 8.0 mg/kg/injection, schedule: Q03HX016 (ip), vehicle: saline): 131 % of control
- T/C (T/C endpoint: mean survival time, dose: 8.0 mg/kg/injection, schedule: Q03HX024 (ip), vehicle: saline): 135 % of control
- T/C (T/C endpoint: mean survival time, dose: 16.0 mg/kg/injection, schedule: Q01DX009 (ip), vehicle: saline): 132 % of control
- T/C (T/C endpoint: mean survival time, dose: 16.0 mg/kg/injection, schedule: Q01DX009 (sc), vehicle: saline): 126 % of control
- survivor count (T/C endpoint: mean survival time, dose: 16.0 mg/kg/injection, schedule: Q03HX008 (ip), vehicle: saline): 5 of 10
- survivor count (T/C endpoint: mean survival time, dose: 16.0 mg/kg/injection, schedule: Q03HX016 (ip), vehicle: saline): 6 of 10
- survivor count (T/C endpoint: mean survival time, dose: 16.0 mg/kg/injection, schedule: Q03HX024 (ip), vehicle: saline): 7 of 10
- T/C (T/C endpoint: mean survival time, dose: 32.0 mg/kg/injection, schedule: Q01DX001 (ip), vehicle: saline): 125 % of control
- T/C (T/C endpoint: mean survival time, dose: 32.0 mg/kg/injection, schedule: Q01DX009 (sc), vehicle: saline): 140 % of control
- survivor count (T/C endpoint: mean survival time, dose: 32.0 mg/kg/injection, schedule: Q03HX008 (ip), vehicle: saline): 5 of 10
- survivor count (T/C endpoint: mean survival time, dose: 32.0 mg/kg/injection, schedule: Q03HX016 (ip), vehicle: saline): 3 of 10
- survivor count (T/C endpoint: mean survival time, dose: 32.0 mg/kg/injection, schedule: Q03HX024 (ip), vehicle: saline): 4 of 10
- T/C (T/C endpoint: mean survival time, dose: 32.0 mg/kg/injection, schedule: Q04DX003 (ip), vehicle: saline): 149 % of control
- T/C (T/C endpoint: mean survival time, dose: 64.0 mg/kg/injection, schedule: Q01DX009 (oral), vehicle: saline): 139 % of control
- T/C (T/C endpoint: mean survival time, dose: 128.0 mg/kg/injection, schedule: Q01DX001 (oral), vehicle: saline): 138 % of control
- T/C (T/C endpoint: mean survival time, dose: 128.0 mg/kg/injection, schedule: Q01DX001 (sc), vehicle: saline): 125 % of control
- survivor count (T/C endpoint: mean survival time, dose: 128.0 mg/kg/injection, schedule: Q01DX009 (ip), vehicle: saline): 5 of 10
- survivor count (T/C endpoint: mean survival time, dose: 128.0 mg/kg/injection, schedule: Q01DX009 (oral), vehicle: saline): 8 of 10
- survivor count (T/C endpoint: mean survival time, dose: 128.0 mg/kg/injection, schedule: Q01DX009 (sc), vehicle: saline): 9 of 10
- survivor count (T/C endpoint: mean survival time, dose: 256.0 mg/kg/injection, schedule: Q01DX001 (ip), vehicle: saline): 4 of 10
- survivor count (T/C endpoint: mean survival time, dose: 256.0 mg/kg/injection, schedule: Q01DX001 (oral), vehicle: saline): 5 of 10
- survivor count (T/C endpoint: mean survival time, dose: 256.0 mg/kg/injection, schedule: Q01DX001 (sc), vehicle: saline): 8 of 10
- survivor count (T/C endpoint: mean survival time, dose: 256.0 mg/kg/injection, schedule: Q01DX009 (oral), vehicle: saline): 8 of 10
- survivor count (T/C endpoint: mean survival time, dose: 256.0 mg/kg/injection, schedule: Q04DX003 (ip), vehicle: saline): 9 of 10
- survivor count (T/C endpoint: mean survival time, dose: 256.0 mg/kg/injection, schedule: Q08DX002 (ip), vehicle: saline): 8 of 10
- survivor count (T/C endpoint: mean survival time, dose: 512.0 mg/kg/injection, schedule: Q01DX001 (oral), vehicle: saline): 6 of 10
- survivor count (T/C endpoint: mean survival time, dose: 512.0 mg/kg/injection, schedule: Q01DX009 (oral), vehicle: saline): 6 of 10
- survivor count (T/C endpoint: mean survival time, dose: 1024.0 mg/kg/injection, schedule: Q01DX001 (oral), vehicle: saline): 6 of 10

SMILES: Cc1cccn(O)c1=NC(=O)c1ccccc1
- survivor count (T/C endpoint: mean survival time, dose: 100.0 mg/kg/injection, schedule: Q01DX009 (ip), vehicle: saline with Tween-80): 3 of 6
- survivor count [1]: 0 of 6
- survivor count [2]: 0 of 6

SMILES: Cc1cccc[n+]1CC[n+]1ccccc1C
- survivor count (T/C endpoint: mean survival time, dose: 400.0 mg/kg/injection, schedule: Q01DX001 (ip), vehicle: saline): 2 of 6

SMILES: O=C(O)c1c(F)c(F)c(F)c(C(=O)O)c1F
- survivor count (T/C endpoint: mean survival time, dose: 100.0 mg/kg/injection, schedule: Q04DX003 (ip), vehicle: saline): 6 of 6
- survivor count [3]: 3 of 6
- survivor count [4]: 0 of 6

SMILES: Cc1cc2sccc2cn1
- survivor count [3]: 0 of 6
- survivor count [4]: 0 of 6

SMILES: N#CCC(=O)NN
- survivor count (T/C endpoint: mean survival time, dose: 300.0 mg/kg/injection, schedule: Q04DX003 (ip), vehicle: saline): 2 of 6

SMILES: COC(=O)C1CCC[N+](C)(C)C1 (configuration not stated)
- survivor count (T/C endpoint: mean survival time, dose: 100.0 mg/kg/injection, schedule: Q01DX009 (ip), vehicle: saline): 3 of 6

SMILES: O=C1CSC(c2cccs2)N1c1nncs1 (configuration not stated)
- T/C [5]: 132 % of control
- survivor count [5]: 3 of 6
- survivor count (T/C endpoint: median survival time, dose: 600.0 mg/kg/injection, schedule: Q01DX005 (ip), vehicle: Klucel (hydroxypropylcellulose) (HPC)): 0 of 6

SMILES: N#C/C(=C\c1ccc(-c2ccccc2)cc1)c1ccc([N+](=O)[O-])cc1
- survivor count [6]: 6 of 6

SMILES: Cc1ccc(NC(=O)NCCCCCCNC(=O)Nc2ccc(C)c(Cl)c2)cc1Cl
- survivor count (T/C endpoint: mean survival time, dose: 200.0 mg/kg/injection, schedule: Q01DX001 (ip), vehicle: saline with Tween-80): 6 of 6

SMILES: S=C(NCCCCCNC(=S)Nc1ccccc1)Nc1ccccc1
- survivor count (T/C endpoint: mean survival time, dose: 400.0 mg/kg/injection, schedule: Q04DX003 (ip), vehicle: acetone): 3 of 6

SMILES: O=NN(CCCl)C(=O)Oc1cc(Cl)c(Cl)cc1Cl
- T/C (T/C endpoint: median survival time, dose: 50.0 mg/kg/injection, schedule: Q01DX009 (ip), vehicle: Klucel (hydroxypropylcellulose) (HPC)): 137 % of control
- survivor count (T/C endpoint: median survival time, dose: 200.0 mg/kg/injection, schedule: Q01DX009 (ip), vehicle: Klucel (hydroxypropylcellulose) (HPC)): 0 of 6 and 5 of 6

SMILES: C=C(C)CSC#N
- survivor count [3]: 3 of 6
- survivor count [4]: 0 of 6

SMILES: CCCCCCCCC(C(=O)c1ccccc1)=C(C(F)(F)F)C(F)(F)F
- survivor count [1]: 5 of 6
- survivor count [2]: 3 of 6

SMILES: COC(=O)N(C)c1nc(-c2ccccc2)nc2nonc12
- survivor count (T/C endpoint: mean survival time, dose: 200.0 mg/kg/injection, schedule: Q01DX005 (ip), vehicle: saline with Tween-80): 6 of 6

SMILES: CCCCCCCCCCCc1n(Cc2ccccc2)c2ccccc2[n+]1C
- survivor count (T/C endpoint: mean survival time, dose: 5.0 mg/kg/injection, schedule: Q04DX003 (ip), vehicle: saline): 0 of 6
- survivor count (T/C endpoint: mean survival time, dose: 10.0 mg/kg/injection, schedule: Q04DX003 (ip), vehicle: saline): 2 of 6
- survivor count (T/C endpoint: mean survival time, dose: 20.0 mg/kg/injection, schedule: Q04DX003 (ip), vehicle: saline): 0 of 6
- survivor count [6]: 0 of 6
- survivor count [3]: 0 of 6
- survivor count [4]: 0 of 6

SMILES: CCCCN(C)CCNc1cc(C)nc(/N=C(\N)Nc2ccc(Cl)c(Cl)c2)n1
- survivor count (T/C endpoint: mean survival time, dose: 150.0 mg/kg/injection, schedule: Q01DX001 (ip), vehicle: other): 0 of 6
- survivor count (T/C endpoint: mean survival time, dose: 300.0 mg/kg/injection, schedule: Q01DX001 (ip), vehicle: other): 0 of 6

SMILES: [Br][Pt+2][Br].[NH-]c1ccccc1F.[NH-]c1ccccc1F
- survivor count (T/C endpoint: mean survival time, dose: 200.0 mg/kg/injection, schedule: Q04DX003 (ip), vehicle: distilled water + Tween-80): 4 of 6

SMILES: C=C1CC(=O)N(c2cccc(C)c2)C1=O
- survivor count [6]: 2 of 6
- survivor count [3]: 0 of 6
- survivor count [4]: 0 of 6

SMILES: O=[N+]([O-])c1ccc(Nc2cccc(Cl)c2)c([N+](=O)[O-])c1
- survivor count [6]: 6 of 6
- survivor count [4]: 6 of 6
